Reference: patent US9044426B2, “Antimicrobial peptides for treatment of infectious diseases” (Dr. Roland Berecz, priority 2011, dated 2015)
At least one peptide structure holds a part that was inferred or is arguable (an end, a ring closure or a residue). Where no end group is shown, it is not given here.

Assays:
Format in all cases: cell-based
[1] = system: Pseudomonas aeruginosa (P. aeruginosa) H103 strain; test: Broth dilution MIC, Pseudomonas aeruginosa; conditions: Mueller Hinton medium, 37° C., 12-15 h
[2] = system: Staphylococcus aureus (S. aureus) ATCC25923 strain; test: Broth dilution MIC, Staphylococcus aureus
[3] = system: Enterococcus faecalis (E. faecalis) ATCC29212 strain; test: Broth dilution MIC, Enterococcus faecalis
[4] = system: clinical multi-drug resistant Pseudomonas aeruginosa strain; test: Broth dilution MIC, multi-drug resistant Pseudomonas aeruginosa; conditions: clinical multi-drug resistant P. aeruginosa strain
[5] = system: Staphylococcus epidermidis clinical strain; test: Broth dilution MIC, Staphylococcus epidermidis; conditions: S. epidermidis clinical strain
[6] = system: laboratory isolate of Candida albicans; test: Antifungal MIC, Candida albicans

Row | Sequence | MIC [1] | MIC [2] | MIC [3] | MIC [4] | MIC [5] | MIC [6]
1 | RRWRVIVKW [RRWRVIVKW (SEQ ID NO.:3), Arg-Arg-Trp-Arg-Val-Ile-Val-Lys-Trp] | 2.7 μmol I^−1 | 1.3 μmol I^−1 | 2.7 μmol I^−1 | 2.7 μmol I^−1 | 0.7 μmol I^−1 | 5.4 μmol I^−1
2 | WKWLKKWIK [WKWLKKWIK (SEQ ID NO.:1), Trp-Lys-Trp-Leu-Lys-Lys-Trp-Ile-Lys] | 2.9 μmol I^−1 | 0.7 μmol I^−1 | 11.5 μmol I^−1 | – | 0.7 μmol I^−1 | 5.8 μmol I^−1
3 | WRKFWKYLK [WRKFWKYLK (SEQ ID NO.:2), Trp-Arg-Lys-Phe-Trp-Lys-Tyr-Leu-Lys] | 6.0 μmol I^−1 | 0.8 μmol I^−1 | 6.0 μmol I^−1 | – | 0.8 μmol I^−1 | 3.0 μmol I^−1
